No constants are given. Whether binding was seen depends on the method and setting. Binding seen in cells or lysates may run through a third protein. A yes stands for co-enrichment or nearness to the bait. Other partners may have been found. For some assays here: No binding means not detected with the bait.

Assay [1] concerns the target T1, methionyl-tRNA synthetase (human (endogenous in HEK 293T)), P56192.
T1 chain: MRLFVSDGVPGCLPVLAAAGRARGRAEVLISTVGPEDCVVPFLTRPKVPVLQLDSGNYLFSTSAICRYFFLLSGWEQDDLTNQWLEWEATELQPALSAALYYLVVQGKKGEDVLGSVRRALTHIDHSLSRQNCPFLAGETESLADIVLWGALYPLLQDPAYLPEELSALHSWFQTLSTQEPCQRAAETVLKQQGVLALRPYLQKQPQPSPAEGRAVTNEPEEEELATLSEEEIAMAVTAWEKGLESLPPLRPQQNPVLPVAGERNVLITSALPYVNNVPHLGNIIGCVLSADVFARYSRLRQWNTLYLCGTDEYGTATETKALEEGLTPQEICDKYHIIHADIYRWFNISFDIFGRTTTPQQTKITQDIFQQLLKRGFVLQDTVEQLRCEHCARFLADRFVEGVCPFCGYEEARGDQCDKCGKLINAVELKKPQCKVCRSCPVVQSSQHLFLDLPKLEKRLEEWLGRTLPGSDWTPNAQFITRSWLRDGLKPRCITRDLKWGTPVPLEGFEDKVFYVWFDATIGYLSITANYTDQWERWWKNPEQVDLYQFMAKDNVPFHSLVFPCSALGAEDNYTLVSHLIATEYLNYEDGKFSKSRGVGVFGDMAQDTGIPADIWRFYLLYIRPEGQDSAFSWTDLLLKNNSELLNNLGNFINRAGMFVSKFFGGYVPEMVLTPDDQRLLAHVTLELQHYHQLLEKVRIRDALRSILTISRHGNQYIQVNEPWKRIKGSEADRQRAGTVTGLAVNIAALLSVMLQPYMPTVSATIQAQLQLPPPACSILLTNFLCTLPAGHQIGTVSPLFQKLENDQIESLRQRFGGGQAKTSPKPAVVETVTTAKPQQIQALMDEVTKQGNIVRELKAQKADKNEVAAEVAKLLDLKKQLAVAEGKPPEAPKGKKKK
The assay can be described thus: affinity purification with mass spectrometry; anti-MetRS antibody on Protein A/G agarose beads, lysate of wildtype HEK 293T cells in TBS with 1% IGEPAL CA-630, 3 h; on-bead trypsin digest, label-free quantification, 3 repeats. The conditions noted are these: remark: other sources report otherwise.

Assay [2] addresses T2, methionyl-tRNA synthetase (human (endogenous in HEK 293T)) (UniProt P56192).
T2 sequence: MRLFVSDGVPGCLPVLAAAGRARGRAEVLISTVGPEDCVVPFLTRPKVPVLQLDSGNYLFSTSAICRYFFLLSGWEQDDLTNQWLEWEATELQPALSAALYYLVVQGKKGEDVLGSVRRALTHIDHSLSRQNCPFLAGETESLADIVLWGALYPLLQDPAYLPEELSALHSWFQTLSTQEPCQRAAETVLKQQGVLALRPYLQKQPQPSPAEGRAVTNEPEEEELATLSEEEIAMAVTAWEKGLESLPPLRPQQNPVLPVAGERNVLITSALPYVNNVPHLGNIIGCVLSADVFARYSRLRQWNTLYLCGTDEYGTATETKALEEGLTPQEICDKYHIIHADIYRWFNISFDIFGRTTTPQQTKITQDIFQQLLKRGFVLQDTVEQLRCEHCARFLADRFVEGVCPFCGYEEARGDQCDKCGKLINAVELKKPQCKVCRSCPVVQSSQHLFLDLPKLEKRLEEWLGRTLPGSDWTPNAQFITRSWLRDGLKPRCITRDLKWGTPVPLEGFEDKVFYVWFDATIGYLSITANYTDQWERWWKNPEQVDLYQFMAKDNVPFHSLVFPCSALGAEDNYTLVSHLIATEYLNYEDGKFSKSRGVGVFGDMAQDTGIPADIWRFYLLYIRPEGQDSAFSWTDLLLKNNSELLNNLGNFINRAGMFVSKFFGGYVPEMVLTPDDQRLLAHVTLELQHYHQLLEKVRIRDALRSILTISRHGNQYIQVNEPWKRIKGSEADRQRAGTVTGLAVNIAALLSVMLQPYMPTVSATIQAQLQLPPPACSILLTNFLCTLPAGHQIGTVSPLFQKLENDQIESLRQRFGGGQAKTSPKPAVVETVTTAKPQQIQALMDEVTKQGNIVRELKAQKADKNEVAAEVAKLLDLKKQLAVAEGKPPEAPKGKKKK
Description: affinity purification with mass spectrometry; as a1, but lysate of HEK 293T ΔLZ cells, which make only ArgRS without the leucine zipper.

B1: arginyl-tRNA synthetase, full-length, P54136 1-660 (enzyme)
chain: MDVLVSECSARLLQQEEEIKSLTAEIDRLKNCGCLGASPNLEQLQEENLKLKYRLNILRKSLQAERNKPTKNMINIISRLQEVFGHAIKAAYPDLENPPLLVTPSQQAKFGDYQCNSAMGISQMLKTKEQKVNPREIAENITKHLPDNECIEKVEIAGPGFINVHLRKDFVSEQLTSLLVNGVQLPALGENKKVIVDFSSPNIAKEMHVGHLRSTIIGESISRLFEFAGYDVLRLNHVGDWGTQFGMLIAHLQDKFPDYLTVSPPIGDLQVFYKESKKRFDTEEEFKKRAYQCVVLLQGKNPDITKAWKLICDVSRQELNKIYDALDVSLIERGESFYQDRMNDIVKEFEDRGFVQVDDGRKIVFVPGCSIPLTIVKSDGGYTYDTSDLAAIKQRLFEEKADMIIYVVDNGQSVHFQTIFAAAQMIGWYDPKVTRVFHAGFGVVLGEDKKKFKTRSGETVRLMDLLGEGLKRSMDKLKEKERDKVLTAEELNAAQTSVAYGCIKYADLSHNRLNDYIFSFDKMLDDRGNTAAYLLYAFTRIRSIARLANIDEEMLQKAARETKILLDHEKEWKLGRCILRFPEILQKILDDLFLHTLCDYIYELATAFTEFYDSCYCVEKDRQTGKILKVNMWRMLLCEAVAAVMAKGFDILGIKPVQRM
For B1, the binding result in assay [1] is “binds”.

B2: ΔLZ ArgRS (arginyl-tRNA synthetase lacking the N-terminal leucine zipper) (enzyme, UniProt P54136 73-660)
chain: MINIISRLQEVFGHAIKAAYPDLENPPLLVTPSQQAKFGDYQCNSAMGISQMLKTKEQKVNPREIAENITKHLPDNECIEKVEIAGPGFINVHLRKDFVSEQLTSLLVNGVQLPALGENKKVIVDFSSPNIAKEMHVGHLRSTIIGESISRLFEFAGYDVLRLNHVGDWGTQFGMLIAHLQDKFPDYLTVSPPIGDLQVFYKESKKRFDTEEEFKKRAYQCVVLLQGKNPDITKAWKLICDVSRQELNKIYDALDVSLIERGESFYQDRMNDIVKEFEDRGFVQVDDGRKIVFVPGCSIPLTIVKSDGGYTYDTSDLAAIKQRLFEEKADMIIYVVDNGQSVHFQTIFAAAQMIGWYDPKVTRVFHAGFGVVLGEDKKKFKTRSGETVRLMDLLGEGLKRSMDKLKEKERDKVLTAEELNAAQTSVAYGCIKYADLSHNRLNDYIFSFDKMLDDRGNTAAYLLYAFTRIRSIARLANIDEEMLQKAARETKILLDHEKEWKLGRCILRFPEILQKILDDLFLHTLCDYIYELATAFTEFYDSCYCVEKDRQTGKILKVNMWRMLLCEAVAAVMAKGFDILGIKPVQRM
Consider B2, for which the binding entry in assay [2] is “no binding”.
